Experimental data as given in paper doi:10.1101/2020.04.13.039982.
Results are given in words; binding and its absence hold for the method and conditions named. Some results given as binding are weak or reduced against the parent protein; the word gives no strength. Sequences can lack the tags named with a protein.

The chains behind the UniProt entries cited, without tags or fusion partners. Where a name states a change or a piece, a line headed by the entry shows the natural chain unless it says otherwise.
UniProt P09733: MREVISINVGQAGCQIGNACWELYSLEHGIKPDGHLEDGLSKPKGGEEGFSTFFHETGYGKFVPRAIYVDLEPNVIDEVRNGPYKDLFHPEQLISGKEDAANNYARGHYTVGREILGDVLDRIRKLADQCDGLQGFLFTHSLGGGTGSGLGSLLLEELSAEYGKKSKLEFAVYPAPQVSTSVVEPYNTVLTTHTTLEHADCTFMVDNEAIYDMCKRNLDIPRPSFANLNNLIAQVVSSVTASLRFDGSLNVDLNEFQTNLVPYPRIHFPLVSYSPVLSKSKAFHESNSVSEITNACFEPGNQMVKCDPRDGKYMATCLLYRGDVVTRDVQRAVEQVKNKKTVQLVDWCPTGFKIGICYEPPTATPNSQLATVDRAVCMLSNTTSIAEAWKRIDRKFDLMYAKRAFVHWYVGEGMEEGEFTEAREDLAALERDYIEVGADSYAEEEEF

Legend:
[1] = target: LexADBD-Tub1 (S. cerevisiae) (UniProt P09733); assay: two-hybrid
[2] = target: LexADBD-Tub1^G437R (S. cerevisiae) (UniProt P09733); assay: two-hybrid

B1: Bim1 fused to the GAL4 activating domain (GAL4AD) (protein, UniProt P40013 1-344)
chain: MSAGIGESRTELLTWLNGLLNLNYKKIEECGTGAAYCQIMDSIYGDLPMNRVKFNATAEYEFQTNYKILQSCFSRHGIEKTVYVDKLIRCKFQDNLEFLQWLKKHWIRHKDESVYDPDARRKYRPIITNNSATKPRTVSNPTTAKRSSSTGTGSAMSGGLATRHSSLGINGSRKTSVTQGQLVAIQAELTKSQETIGSLNEEIEQYKGTVSTLEIEREFYFNKLRDIEILVHTTQDLINEGVYKFNDETITGHGNGNGGALLRFVKKVESILYATAEGFEMNDGEDELNDKNLGEHGTVPNQGGYANSNGEVNGNEGSNHDVIMQNDEGEVGVSNNLIIDEETF
- binding [1]: binds
- binding [2]: binds

B2: Kip3 fused to the GAL4 activating domain (GAL4AD) (protein, UniProt P53086 1-805)
chain: MNVPETRQSSIVVAIRVRPFTSMEKTRLVNEASGAEANFPGLGDSSLILPMSNNSDSDIDIDAEEGSTRSKRNSLLRRKVIRPEGIRKIVDCVDDRMLIFDPADRNPLNKVSDQVLNSMRARATKATASSINNSNATNKFSSQRRRHGGEIKFVFDKLFDETSSQARVYKETTSPLLDSVLDGFNSTVFAYGATGCGKTYTVSGTPSQPGIIFLAMEELFNKITDLKDEKDFEISLSYLEIYNERIRDLLKPETPSKRLVIREDTQNHIKVANLSYHHPNTVEDVMDLVVQGNINRTTSPTEANEVSSRSHAVLQIHIMQTNKLVDLTSQHTFATLSIIDLAGSERAAATRNRGIRLHEGANINRSLLALGNCINALCLNDGSRSCHIPYRDSKLTRLLKFSLGGNCKTVMIVCISPSSSHYDETLNTLKYANRAKEIKTKIIRNQQSLSRHVGSYLKMITEQKRQIEELREREEKMISLKLTKYKLNKEKIQLAINECVNRVQQTYAGVETYQVAKTLKSLILCKRRFLQMVKLEVDNLILLFEREESTAAEMQPVISNCRMISGQLYNKIHELEMKFDETDTLSSVIHQVHSIDLNKLREMEDWDETYDLVYLESCLNQISELQRNEILVNSSIMTEKLMSDPGLNSRFKFLSKWLMNRTPNIESIIQDLVHIDEEFESFARTFIANPDSNFTNTNINIINTTAADLAVPAETLQRQNFSQKKVKWTSPDLSPSPMIEPQPELEPELHQDQDAIASEVDVSMQDTTFNEQGPSTPSAPTTAVPRRKMRSSLLTHQSLLATARK
- binding [1]: binds
- binding [2]: binds

B3: She1-Gal4 activation domain (AD) fusion (protein, UniProt P38200 1-338)
chain: MNDKLQEEHNEKDTTSQINGFTPPHMSIDFHSNNNSNIIETIGVSKRLGNSVLSELDSRASSKFEFLKDQSEQQYNGDKNNEPKSGSYNINEFFQAKHDSQFGQMESLDTHYTLLHTPKRKSQHAIPQDRSDSMKRSRPSRSIPYTTPVVNDITRRIRRLKLRNSLVNGNDIVARARSMQANSNINSIKNTPLSKPKPFMHKPNFLMPTTNSLNKINSAHRNTSSSSTASSIPRSKVHRSISIRDLHAKTKPVERTPVAQGTNSQLKNSVSVFDRLYKQTTFSRSTSMNNLSSGTSAKSKEHTNVKTRLVKSKTSGSLSSNLKQSTATGTKSDRPIWR
- binding [1]: binds
- binding [2]: no binding
